The other results are listed elsewhere or left out. Repeats in this data set agree poorly, so a single value says little.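 Triple-negative MDA-MB-231 breast cancer cells and their brain-metastatic MDA-MB-231BRM derivative each stably expressed empty vector, full-length GLI1 or truncated tGLI1. CellTiter-Blue measured viability at 48 h relative to 1% DMSO vehicle. Compounds reducing viability 20% more in tGLI1 cells than in vector and GLI1 cells counted as tGLI1-selective.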
Experiments:
Experiment in all cases: cell viability relative to vehicle (DMSO) control (fraction); higher = more viable cells (less growth inhibition)
Details in all cases: treatment time 48 h
[1] = system: MDA-MB-231 GLI1
[2] = system: MDA-MB-231 Vector
[3] = system: MDA-MB-231 tGLI1
[4] = system: MDA-MB-231BRM GLI1
[5] = system: MDA-MB-231BRM Vector
[6] = system: MDA-MB-231BRM tGLI1

Compound	cell viability ([1]; 0.05 µM)	cell viability ([1]; 0.5 µM)	cell viability ([1]; 5 µM)	cell viability ([2]; 0.05 µM)	cell viability ([2]; 0.5 µM)	cell viability ([2]; 5 µM)	cell viability ([3]; 0.05 µM)	cell viability ([3]; 0.5 µM)	cell viability ([3]; 5 µM)	cell viability ([4]; 0.05 µM)	cell viability ([4]; 0.5 µM)	cell viability ([4]; 5 µM)	cell viability ([5]; 0.05 µM)	cell viability ([5]; 0.5 µM)	cell viability ([5]; 5 µM)	cell viability ([6]; 0.05 µM)	cell viability ([6]; 0.5 µM)	cell viability ([6]; 5 µM)
CC(=O)Oc1cc2c(s1)CCN(C(C(=O)C1CC1)c1ccccc1F)C2 (stereo not drawn) [Prasugrel (Effient)]	1.1	1.16	1.15	0.99	1.16	0.994	0.953	1.15	1.03	1.04	1.04	0.95	1.01	1	0.992	1.15	1.02	1.07
C=CC(=O)Nc1cccc(Nc2nc(Nc3ccc(OCCOC)cc3)ncc2F)c1	1.18	1.64	0.638	1.4	1.51	0.71	1.56	1.36	0.77	1	0.919	0.778	1.12	1.02	0.824	0.936	0.924	0.792
CNC(=O)c1ccc(C)c(-n2c(C)cc(OCc3ccc(F)cc3F)c(Br)c2=O)c1	1.24	0.436	1.22	1.3	1.25	1.97	1.43	1.2	1.19	0.994	1	1.04	0.997	1.05	1.13	1.08	1.12	0.929
CC(C)c1nc(CN(C)C(=O)N[C@H](C(=O)N[C@@H](Cc2ccccc2)C[C@H](O)[C@H](Cc2ccccc2)NC(=O)OCc2cncs2)C(C)C)cs1 [Ritonavir]	1.42	1.05	1.15	1.58	1.21	1.24	1.32	1.09	1.07	1.01	0.977	0.972	0.988	0.957	1.01	1.05	0.975	0.992
O=c1ncn2nc(Sc3ccc(F)cc3F)ccc2c1-c1c(Cl)cccc1Cl	1.41	1.48	1.79	0.936	1.22	1.41	1.21	1.39	1.45	1.15	0.686	0.889	1.1	1.06	0.927	1.05	0.659	0.87
COC(=O)c1ccc2c(c1)NC(=O)/C2=C(\Nc1ccc(N(C)C(=O)CN2CCN(C)CC2)cc1)c1ccccc1 [Nintedanib (BIBF 1120)]	1.15	1.42	0.458	1.01	0.952	0.335	0.884	1.25	0.254	0.875	0.736	0.373	0.779	0.727	0.37	0.914	0.755	0.345
O=C(Nc1ccccc1C(=O)NC1CCCCNC1=O)c1cc2ccccc2s1 (stereo not drawn)	2.2	3.12	2.05	1.3	1.19	1.28	1.39	1.49	1.51	0.898	0.776	0.651	0.872	0.762	0.702	1.03	1.18	1.04
CN(C)c1ccc(-c2nc3ncc(Cl)c(N4CCN(CC(=O)Nc5nccs5)CC4)c3[nH]2)cc1	1.01	0.822	0.271	0.938	0.807	0.449	0.972	0.89	0.599	1.1	1.2	1.1	1.18	0.999	0.724	0.686	1.14	0.992
C1=N/C2=N/c3ccc(OCCN4CCCC4)c(c3)COC/C=C/COCc3cccc(c3)C(=C1)N2 [Pacritinib (SB1518)]	1.11	1.02	-0.0419	0.646	0.124	-0.129	0.689	0.241	-0.146	0.542	0.469	0.456	0.562	0.518	0.555	0.614	0.533	0.805
NC(=O)Nc1cc(-c2cccc(F)c2)sc1C(=O)N[C@H]1CCCNC1	0.924	0.182	0.0427	0.592	0.223	0.0775	0.787	0.203	0.0483	0.764	1.26	0.995	0.831	1.13	0.682	0.705	1.16	0.848
O=C(O)[C@]1(Cc2cccc(Nc3nccs3)n2)CC[C@@H](Oc2cccc(Cl)c2F)CC1	1.21	0.934	0.596	1.25	0.966	0.335	1.27	0.816	0.652	1.06	1.11	1.05	1.1	1.15	1.13	1.12	1.16	1.04
Cc1nc(Nc2ncc(C(=O)Nc3c(C)cccc3Cl)s2)cc(N2CCN(CCO)CC2)n1	0.957	0.451	0.367	1.12	0.46	0.247	0.808	0.395	0.334	0.797	0.628	0.638	0.936	0.635	0.625	0.803	0.665	0.603
N[C@@H]1CCCN(c2c(/C=C3\SC(=O)NC3=O)cccc2-c2ccccc2)C1	1.15	1.66	0.934	1.23	1.27	1.35	1.29	1.35	1.33	0.984	0.984	0.928	1.03	1.05	1	0.999	0.992	1.01
C[C@H](NC(=O)/C(C#N)=C/c1cccc(Br)n1)c1ccccc1	1.25	1.21	-0.0479	1.24	1.29	-0.0847	1.17	1.16	-0.00293	0.992	1.06	1.11	0.995	1.02	0.665	1.02	1.08	0.947
CCN1CCN(Cc2ccc(-c3cc4c(N[C@H](C)c5ccccc5)ncnc4[nH]3)cc2)CC1	1.39	1.39	0.4	1.17	1.21	0.75	0.462	1.37	0.227	1.19	0.495	0.578	0.744	0.855	0.424	0.596	0.544	0.568
Nc1cccc2c1CN(C1CCC(=O)NC1=O)C2=O (stereo not drawn) [Lenalidomide]	1.18	1.18	1.21	0.961	1.66	1.22	1.06	1.07	0.996	0.987	1.02	0.999	1.02	1.02	1.03	1.08	1.05	1.04
CC(C)C[C@H](NC(=O)[C@H](Cc1ccccc1)NC(=O)c1cnccn1)B(O)O [Bortezomib (Velcade)]	-0.313	-0.333	-0.361	-0.576	-0.662	-0.659	-0.407	-0.451	-0.46	1.08	0.812	0.787	1.04	0.815	0.736	1.07	0.797	0.729
COc1cc2ncc(-c3ccccc3)nc2cc1OC [Tyrphostin AG 1296]	1.27	1.94	1.24	0.73	0.668	0.764	0.715	0.784	0.854	0.462	0.406	0.236	0.515	0.451	0.273	0.592	0.58	0.456
CC(C)[C@H](CO)Nc1nc(Nc2cccc(Cl)c2)c2ncn(C(C)C)c2n1 [Purvalanol A]	1.05	1.83	0.599	0.694	0.727	0.229	0.668	0.861	0.236	0.561	0.427	0.353	0.551	0.462	0.327	0.725	0.692	0.583
O=C(NC(NC(=S)Nc1ccc(F)c([N+](=O)[O-])c1)C(Cl)(Cl)Cl)C(c1ccccc1)c1ccccc1 (stereo not drawn)	1.47	1.7	0.0712	1.43	1.38	0.413	1.44	1.45	0.0981	1.13	0.998	0.774	1.15	1.06	0.777	1.04	0.985	0.795
CS(=O)(=O)c1cccc(CNc2nc(Nc3ccc4c(c3)CCC(=O)N4)ncc2C(F)(F)F)c1	1.23	1.2	0.813	1.48	1.1	0.612	1	1.13	0.709	1.12	1.04	0.876	1.04	1.08	0.873	1.01	1.09	0.869

2 entries drawn at random from the list so far, as already listed:
Compound	cell viability ([1]; 0.05 µM)	cell viability ([1]; 0.5 µM)	cell viability ([1]; 5 µM)	cell viability ([2]; 0.05 µM)	cell viability ([2]; 0.5 µM)	cell viability ([2]; 5 µM)	cell viability ([3]; 0.05 µM)	cell viability ([3]; 0.5 µM)	cell viability ([3]; 5 µM)	cell viability ([4]; 0.05 µM)	cell viability ([4]; 0.5 µM)	cell viability ([4]; 5 µM)	cell viability ([5]; 0.05 µM)	cell viability ([5]; 0.5 µM)	cell viability ([5]; 5 µM)	cell viability ([6]; 0.05 µM)	cell viability ([6]; 0.5 µM)	cell viability ([6]; 5 µM)
C1=N/C2=N/c3ccc(OCCN4CCCC4)c(c3)COC/C=C/COCc3cccc(c3)C(=C1)N2 [Pacritinib (SB1518)]	1.11	1.02	-0.0419	0.646	0.124	-0.129	0.689	0.241	-0.146	0.542	0.469	0.456	0.562	0.518	0.555	0.614	0.533	0.805
O=c1ncn2nc(Sc3ccc(F)cc3F)ccc2c1-c1c(Cl)cccc1Cl	1.41	1.48	1.79	0.936	1.22	1.41	1.21	1.39	1.45	1.15	0.686	0.889	1.1	1.06	0.927	1.05	0.659	0.87
